The text below walks through data of PubChem BioAssay AID1347423 (Functional Genomics Laboratory (NCATS/FGL), 2020).

Among all 52,000 sequences or so, about 210 (0.4%) were called active.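 Rule for the calls: active = gene whose silencing raises cell survival under the drug, median off-target-corrected z-score across its silencing RNAs 2 or more; inactive = the rest.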 The list shows a part of the results.

A short description of the experiment: Resistance to Poly (ADP-Ribose) Polymerase inhibitor: Gene Identification via Genome-wide siRNA Screen. The note with it: mouse BRCA2 R2336H ES cells, olaparib, CellTiter-Glo viability; hits give high values. The essentials: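 Mouse BRCA2 R2336H ES cells were reverse-transfected with siRNA (20 nM final), treated at 48 h with 500 nM olaparib, and read by CellTiter-Glo after 72 h. Scores: MAD-based z per siRNA, median per gene, seed off-target correction.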
Background: ATP-based viability assays read luminescence as a measure of living cells.
On to GGUUGUCCCACAUACUUCCTT against Nr1d1, for which the z-score is inactive: 0.227.
With “CCCAAAGUGGUAUCCAAAGTT against 6030498E09Rik” the figure was inactive: -2.45.
With GCCUCCAUGGGAAAUCAAGTT against Zfp37 the figure was inactive: 0.292; with GGCUGAAAAGGAAAAUCCATT against Pdcd10, inactive: 0.348.
In the case of GGAAGACCAGCACUUGAAATT against Klhl13, the z-score is inactive: 0.293.
As for GCAGAUGCUAACAUAUCCATT against Trim32, the z-score is inactive: 0.38.
Take GGCUGCCAGUCAACUUUCUTT against Krtap14: the z-score was inactive: -1.43.
Under GCUUAAACUACAGCCCGAGTT against Spag5 stands inactive: -0.257; under CCGUUUACCAACCAAGAAUTT against Tnfrsf17, inactive: 0.972; under GGGAUUCUGUCCUUGGUCATT against Havcr2, inactive: -1.3.
As for “GCUUUGACUACAUCUGAGGTT against 1200003M09Rik”, the z-score is inactive: -0.219.
For the sequence GGACCUGUCUGAAGACUUGTT against Asf1a, the z-score was inactive: -0.321.
Take CGAUCUUGAUUAGUUUCAUTT against Plp1: the z-score was inactive: 0.411.
With GCUUUGACUACGAGGAUUATT against Ets1 the figure was inactive: 1.5; with GGGUUUUAGAAUUGCUCUUTT against Tst, inactive: -0.255; with GCUAAAGAACGUGCCAAUGTT against Sfrs10, inactive: 0.101.
For GGAAACUACAAAUUUGGCATT against Krtap6-2, the z-score is inactive: 1.3.
Consider GGAACUGGUCUCAGAAGAGTT against Cd79b, for which the z-score is inactive: -0.521.
Regarding GGUACUUUGUGGGAGAAGATT against Actrt1, the z-score is inactive: -0.104.
On to GGAUGUGAUGAAGUUGGCCTT against Olfr78, for which the z-score was inactive: 2.19.
For GGACAACAAAUUUCGACUATT against Trappc6b, the z-score is inactive: 0.218.
As for GGAGGAAGAGAUUUUAAACTT against Rps8, the z-score is inactive: -2.59.
With CCAGAAUACUGGGAUACAATT against AB114826, the z-score is inactive: -0.722.
Take GGUUUUUUAAGUUCAGCCGTT against Got2: the z-score is inactive: 1.23.
With GGCUGUCUAUAAGAAUGUUTT against Nup210, the z-score was inactive: -1.16.
On to GCAUGAUCUCAUGUUCCUUTT against D4Ertd89e, for which the z-score is inactive: -0.0953.
For the sequence GGAGGUGGAAAAUCUGUACTT against Cdca8, the z-score was inactive: -0.762.
On to GGCCGUUUCACUACCAUUCTT against Ier2, for which the z-score is inactive: -0.359.
In the case of GGGAGGAAAUGAAUGAAUUTT against Gypc, the z-score is inactive: -0.419.
On to GGAUUUUAGAAGUAAUGGGTT against Rog, for which the z-score was inactive: 0.677.
Take GGAGUUUCUGGAAGAGAUCTT against Ube3b: the z-score is inactive: 0.344.
Under GGAGAUCGCACCUAAGAUUTT against Pgam2 stands inactive: 0.325; under “GGCUUGCUUUGCUUCCCUUTT against 1500003D12Rik”, inactive: 0.588.
For the sequence “GCCAUAAGGCAGAAUCCAATT against 4933406E20Rik”, the z-score is inactive: 0.26.
Turning to GCGAGUUGUAACAUUGCCATT against St14, the z-score is inactive: -1.98.
Take “GGAGAUUGGCAUCCAGAACTT against D130074J02Rik”: the z-score is inactive: 0.312.
Under GGAAAAUGUUUCUGAUGAATT against Nfat5 stands inactive: -0.901; under GGUCACUGGAGCUUUAAUATT against Olfr705, inactive: 1.29.
Under GCUGCCAAAGUGACAUAGATT against Notch3 stands inactive: 1.41; under “GGUUAUCCAGAGAGUGCAUTT against 1110036H21Rik”, inactive: 0.169.
As to GCCGCACUAAAUUCUCUUATT against H2-Oa, the z-score is inactive: 0.502.
As for GGAUAUGAAACACCAGAUCTT against Birc1b, the z-score was inactive: -1.36.
In the case of GGUUGAUGGGAAAACAAUATT against Rab11a, the z-score is inactive: -0.166.
With GGAUGAAGUGUGUUUUGGCTT against Sim1 the figure was inactive: 2.53; with GGCCACCUAAAACUAUAUATT against Cd59a, inactive: -1.7.
Regarding “GGAAAAGAAAGAAGCUUUUTT against 2600005C20Rik”, the z-score was inactive: -0.861.
For “CCUGGAGAUUCAGUACGAATT against 4631426H08Rik”, the z-score is inactive: 0.104.
In the case of GGAUCAAAUUACAGAUCUUTT against Eef1e1, the z-score was inactive: -2.2.
Turning to CCCAAUGUUUCUAAUCAUGTT against Arhgap12, the z-score is inactive: 0.506.
For GCUUUGGAUAGUAGACAGCTT against MGC65590, the z-score is inactive: 0.73.
Under GGAAAGAAUGAGGAUGUGGTT against Pitx2 stands inactive: -0.64; under GGUAAAAGUGGGUAGGAAATT against Ptprh, inactive: 0.929.
On to “GAUCUUCACCAAUAAGUGUTT against 1110060O18Rik”, for which the z-score was inactive: 1.37.
As for “GGAGUGUAAUAACUUCUUATT against E430025E21Rik”, the z-score is inactive: -0.323.
On to GGAGAACAUCAAGAACAAUTT against Ap2m1, for which the z-score is inactive: -0.626.
In the case of GGCAAUUUGUGGAUUAUUGTT against Olfr1105, the z-score is inactive: -0.926.
For GGAGUGGUAUUUUUACAAUTT against Slc34a1, the z-score is inactive: 0.474.
Under GGAAGAAACGGAGACUCAATT against Neud4 stands inactive: 0.699.
Consider GGGCACGAUCCUCUUCAACTT against Nr0b2, for which the z-score was inactive: 2.12.
In the case of CGAGUUCCUAUGUUGGUGCTT against Cldn2, the z-score was inactive: 5.71.
For the sequence GGAAGUUGUUUUGUUGGACTT against Epha2, the z-score is inactive: -0.878.
As for GGAUGAGAACAACUCUGCUTT against AI841794, the z-score is inactive: 2.76.
Regarding GGAUUUUCUUACACGGAUGTT against Cyct, the z-score is inactive: -1.09.
As for GGCAUUUUCACAAAAGACUTT against Rab23, the z-score is inactive: -1.35.
Turning to GGCUUUUGGCUUCAACCCUTT against Slc39a14, the z-score was inactive: -0.434.
With “GGUACGGACCCACAUUCAATT against C530024P05Rik”, the z-score was inactive: -0.785.
For the sequence GGAAACGUGGGCAUGAUCATT against Olfr944, the z-score was inactive: -2.59.
